No constants are given. Whether binding was seen depends on the method and setting. Some binding calls cover weakened binding; strength is not graded here.
Target: alpha-1 catenin (UniProt P35221)
Experiment: yeast two-hybrid, BCMP 101 as bait, cDNA library as prey

By UniProt entry, the sequences of proteins in these tests, tags left out. Where a name states a change or a piece, a line headed by the entry shows the natural chain unless it says otherwise. Residues count along the entry.
UniProt P35221, residues 2-906: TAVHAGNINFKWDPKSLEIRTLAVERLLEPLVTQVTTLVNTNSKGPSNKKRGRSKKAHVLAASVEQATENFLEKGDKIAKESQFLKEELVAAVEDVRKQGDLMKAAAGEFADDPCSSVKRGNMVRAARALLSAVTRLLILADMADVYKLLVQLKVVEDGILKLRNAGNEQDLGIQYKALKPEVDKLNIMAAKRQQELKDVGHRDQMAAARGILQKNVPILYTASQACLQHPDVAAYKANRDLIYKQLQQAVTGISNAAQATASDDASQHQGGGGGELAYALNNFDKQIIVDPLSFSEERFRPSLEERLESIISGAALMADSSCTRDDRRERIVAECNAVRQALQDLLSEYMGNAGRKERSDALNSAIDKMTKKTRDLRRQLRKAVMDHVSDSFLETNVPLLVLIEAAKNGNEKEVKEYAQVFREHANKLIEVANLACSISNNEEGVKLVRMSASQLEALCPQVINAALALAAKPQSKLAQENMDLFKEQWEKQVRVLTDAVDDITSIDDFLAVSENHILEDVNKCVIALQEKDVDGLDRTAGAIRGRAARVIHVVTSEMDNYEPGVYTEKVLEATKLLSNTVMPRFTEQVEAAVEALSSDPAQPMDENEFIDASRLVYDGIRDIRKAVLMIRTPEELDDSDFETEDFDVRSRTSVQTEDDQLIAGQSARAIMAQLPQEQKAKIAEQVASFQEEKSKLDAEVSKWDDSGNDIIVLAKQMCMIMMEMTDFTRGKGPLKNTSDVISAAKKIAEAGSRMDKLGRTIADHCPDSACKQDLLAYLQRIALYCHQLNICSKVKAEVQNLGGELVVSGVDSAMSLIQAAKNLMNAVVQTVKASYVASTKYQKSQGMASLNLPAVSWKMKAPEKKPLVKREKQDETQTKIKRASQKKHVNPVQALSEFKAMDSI
UniProt Q96KN1: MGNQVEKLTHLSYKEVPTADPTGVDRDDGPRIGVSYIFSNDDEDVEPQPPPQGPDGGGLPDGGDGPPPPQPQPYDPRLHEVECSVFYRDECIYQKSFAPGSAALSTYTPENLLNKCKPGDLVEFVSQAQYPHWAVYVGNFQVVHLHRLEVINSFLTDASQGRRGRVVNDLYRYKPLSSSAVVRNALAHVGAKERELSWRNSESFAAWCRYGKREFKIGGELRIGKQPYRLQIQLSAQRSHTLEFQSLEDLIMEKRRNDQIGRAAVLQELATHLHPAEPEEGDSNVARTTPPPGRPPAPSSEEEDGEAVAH

binding: binds
Substance: BCMP 101 (from UniProt Q96KN1 1-310)

Source: US20080226644A1
